Reference: the supplement of paper PMC8728848
Some of the results follow.

How the values were obtained:
Assay in all cases: glycan array binding signal (z-score within array); higher = stronger binding
Details in all cases: glycan notation: IUPAC condensed, linker removed
[1] = target: Man(a1-3)[Man(a1-6)]Man(a1-6)[Man(a1-3)]Man
Outline: (§1)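 The Consortium for Functional Glycomics database supplied 3228 glycan arrays, of which those lacking an available protein sequence were dropped. The binding signal, a within-array Z-score, was averaged across arrays of the same protein sequence and across linkers. Negative scores can be read as non-binding.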

[2] = target: Man(a1-3)[Man(a1-6)]Man(a1-6)[Man(a1-3)]Man(b1-4)GlcNAc(b1-4)GlcNAc
Outline: as §1

[3] = target: Man(a1-3)[Man(a1-6)]Man(b1-4)GlcNAc(b1-4)GlcNAc
Outline: as §1

[4] = target: Man(a1-3)[Man(a1-6)]Man(b1-4)GlcNAc(b1-4)[Fuc(a1-6)]GlcNAc
Outline: as §1

Man(a1-6)Man = target: Man(a1-6)Man
Outline: as §1

Man(b1-4)GlcNAc = target: Man(b1-4)GlcNAc
Outline: as §1

MurNAc(b1-4)GlcNAc = target: MurNAc(b1-4)GlcNAc
Outline: as §1

Neu5Ac(a2-3)Gal = target: Neu5Ac(a2-3)Gal
Outline: as §1

[5] = target: Neu5Ac(a2-3)Gal(b1-3)GalNAc
Outline: as §1

[6] = target: Neu5Ac(a2-3)Gal(b1-3)GalNAc(b1-3)Gal(a1-4)Gal(b1-4)Glc
Outline: as §1

[7] = target: Neu5Ac(a2-3)Gal(b1-3)GalNAc(b1-4)Gal(b1-4)Glc
Outline: as §1

[8] = target: Neu5Ac(a2-3)Gal(b1-3)GalNAc(b1-4)[Neu5Ac(a2-3)]Gal(b1-4)Glc
Outline: as §1

[9] = target: Neu5Ac(a2-3)Gal(b1-3)GalNAc(b1-4)[Neu5Ac(a2-8)Neu5Ac(a2-3)]Gal(b1-4)Glc
Outline: as §1

[10] = target: Neu5Ac(a2-3)Gal(b1-3)GalNAc6S
Outline: as §1

[11] = target: Neu5Ac(a2-3)Gal(b1-3)GlcNAc
Outline: as §1

[12] = target: Neu5Ac(a2-3)Gal(b1-3)GlcNAc(b1-2)Man
Outline: as §1

[13] = target: Neu5Ac(a2-3)Gal(b1-3)GlcNAc(b1-2)Man(a1-3)[GlcNAc(b1-4)][Neu5Ac(a2-3)Gal(b1-3)GlcNAc(b1-2)Man(a1-6)]Man(b1-4)GlcNAc(b1-4)GlcNAc
Outline: as §1

[14] = target: Neu5Ac(a2-3)Gal(b1-3)GlcNAc(b1-2)Man(a1-3)[Neu5Ac(a2-3)Gal(b1-3)GlcNAc(b1-2)Man(a1-6)]Man(b1-4)GlcNAc(b1-4)GlcNAc
Outline: as §1

[15] = target: Neu5Ac(a2-3)Gal(b1-3)GlcNAc(b1-2)[Neu5Ac(a2-3)Gal(b1-3)GlcNAc(b1-4)]Man(a1-6)[Neu5Ac(a2-3)Gal(b1-3)GlcNAc(b1-2)Man(a1-3)]Man(b1-4)GlcNAc(b1-4)GlcNAc
Outline: as §1

[16] = target: Neu5Ac(a2-3)Gal(b1-3)GlcNAc(b1-3)Gal(b1-3)GlcNAc
Outline: as §1

[17] = target: Neu5Ac(a2-3)Gal(b1-3)GlcNAc(b1-3)Gal(b1-4)GlcNAc
Outline: as §1

[18] = target: Neu5Ac(a2-3)Gal(b1-3)GlcNAc(b1-3)GalNAc
Outline: as §1

[19] = target: Neu5Ac(a2-3)Gal(b1-3)GlcNAc(b1-6)GalNAc
Outline: as §1

[20] = target: Neu5Ac(a2-3)Gal(b1-3)GlcNAc6S
Outline: as §1

[21] = target: Neu5Ac(a2-3)Gal(b1-3)[Fuc(a1-4)]GlcNAc
Outline: as §1

[22] = target: Neu5Ac(a2-3)Gal(b1-3)[Fuc(a1-4)]GlcNAc(b1-3)Gal(b1-3)[Fuc(a1-4)]GlcNAc
Outline: as §1

[23] = target: Neu5Ac(a2-3)Gal(b1-3)[Fuc(a1-4)]GlcNAc(b1-3)Gal(b1-4)[Fuc(a1-3)]GlcNAc
Outline: as §1

[24] = target: Neu5Ac(a2-3)Gal(b1-3)[GlcNAc(b1-6)]GalNAc
Outline: as §1

[25] = target: Neu5Ac(a2-3)Gal(b1-3)[Neu5Ac(a2-6)]GalNAc
Outline: as §1

[26] = target: Neu5Ac(a2-3)Gal(b1-3)[Neu5Ac(a2-6)]GlcNAc(b1-3)[Fuc(a1-3)[Gal(b1-4)]GlcNAc(b1-6)]Gal(b1-4)Glc
Outline: as §1

[27] = target: Neu5Ac(a2-3)Gal(b1-3)]Neu5Ac(a2-3)Gal(b1-4)]GlcNAc
Outline: as §1

Neu5Ac(a2-3)Gal(b1-4)Glc = target: Neu5Ac(a2-3)Gal(b1-4)Glc
Outline: as §1

[28] = target: Neu5Ac(a2-3)Gal(b1-4)GlcNAc
Outline: as §1

[29] = target: Neu5Ac(a2-3)Gal(b1-4)GlcNAc(b1-2)Man
Outline: as §1

[30] = target: Neu5Ac(a2-3)Gal(b1-4)GlcNAc(b1-2)Man(a1-3)[GlcNAc(b1-4)][Neu5Ac(a2-3)Gal(b1-4)GlcNAc(b1-2)Man(a1-6)]Man(b1-4)GlcNAc(b1-4)GlcNAc
Outline: as §1

[31] = target: Neu5Ac(a2-3)Gal(b1-4)GlcNAc(b1-2)Man(a1-3)[Neu5Ac(a2-3)Gal(b1-4)GlcNAc(b1-2)Man(a1-6)]Man(b1-4)GlcNAc(b1-4)GlcNAc
Outline: as §1

[32] = target: Neu5Ac(a2-3)Gal(b1-4)GlcNAc(b1-2)Man(a1-3)[Neu5Ac(a2-3)Gal(b1-4)GlcNAc(b1-2)Man(a1-6)]Man(b1-4)GlcNAc(b1-4)[Fuc(a1-6)]GlcNAc
Outline: as §1

[33] = target: Neu5Ac(a2-3)Gal(b1-4)GlcNAc(b1-2)Man(a1-3)[Neu5Ac(a2-6)Gal(b1-4)GlcNAc(b1-2)Man(a1-6)]Man(b1-4)GlcNAc(b1-4)GlcNAc
Outline: as §1

B1: SJCP1531 (Schistosoma japonicum) (protein)
chain: MFKVRIINLVNISTVLLLINLLQTKSQVNVEQLVTVLEVNIKAQLKNKTTEVLVEWNPLYQDNSMPEYRKLLDETCKLFLPFVNEKVPPSTYGGECTNANFSEAPQDGSYSRVNAELRLIYKYSDNPQIQTDRLQDDLNDREEFITSESSFVAYNPKFTVKIEKLFIPISESQTTPPPTTAKNDASKKDDDDNGGEDSKAPIDTFAMTASGNKGKKDDDDNGGEDSKAPIDTFAMTASGSKDERSTWTIIGIITLVVLIFVVIGGGITVFVKRC
glycan array binding signal (z-score) [1]: -0.239
glycan array binding signal (z-score) [2]: -0.243
glycan array binding signal (z-score) [3]: -0.596
glycan array binding signal (z-score) [4]: 0.376
glycan array binding signal (z-score) (Man(a1-6)Man): -0.518
glycan array binding signal (z-score) (Man(b1-4)GlcNAc): 1.56
glycan array binding signal (z-score) (MurNAc(b1-4)GlcNAc): 0.723
glycan array binding signal (z-score) (Neu5Ac(a2-3)Gal): 0.951
glycan array binding signal (z-score) [5]: -0.628
glycan array binding signal (z-score) [6]: -0.631
glycan array binding signal (z-score) [7]: -0.322
glycan array binding signal (z-score) [8]: -1.32
glycan array binding signal (z-score) [9]: 0.296
glycan array binding signal (z-score) [10]: -0.781
glycan array binding signal (z-score) [11]: 0.368
glycan array binding signal (z-score) [12]: -0.604
glycan array binding signal (z-score) [13]: -1.23
glycan array binding signal (z-score) [14]: 0.089
glycan array binding signal (z-score) [15]: -0.175
glycan array binding signal (z-score) [16]: -1.78
glycan array binding signal (z-score) [17]: -0.438
glycan array binding signal (z-score) [18]: 0.87
glycan array binding signal (z-score) [19]: 0.742
glycan array binding signal (z-score) [20]: -0.838
glycan array binding signal (z-score) [21]: -0.374
glycan array binding signal (z-score) [22]: 1.14
glycan array binding signal (z-score) [23]: -0.267
glycan array binding signal (z-score) [24]: 0.205
glycan array binding signal (z-score) [25]: -0.266
glycan array binding signal (z-score) [26]: 0.054
glycan array binding signal (z-score) [27]: -0.188
glycan array binding signal (z-score) (Neu5Ac(a2-3)Gal(b1-4)Glc): 1.17
glycan array binding signal (z-score) [28]: 0.335
glycan array binding signal (z-score) [29]: 1.47
glycan array binding signal (z-score) [30]: 0.19
glycan array binding signal (z-score) [31]: 0.938
glycan array binding signal (z-score) [32]: -1.15
glycan array binding signal (z-score) [33]: -0.815
